{"source": "patent US20190029637A1", "about": "“A WEARABLE SENSOR, AND METHOD, TO MONITOR ANTI-COAGULATION THERAPY” (The Regents of the University of California, priority 2016, published 2019)", "key": {"[1]": {"test": "Photoacoustic imaging of methylene blue / heparin in buffer"}, "[2]": {"test": "Photoacoustic imaging of heparin in methylene blue-doped whole human blood"}, "[3]": {"settings": "cited from earlier work"}}, "note": "Where two headings read alike, the source gives them in different places."}
{"substance": "heparin", "values": [{"measurement": "increase in photoacoustic signal", "setting": "[1]; 6.4 U/mL heparin at 710 nm excitation", "result": 30, "unit": "fold"}, {"measurement": "detection limit (photoacoustic signal vs heparin concentration)", "setting": "[1]; buffer, heparin 0 to 6.4 U/mL", "result": 14.2, "unit": "mU/mL"}, {"measurement": "detection limit of heparin", "setting": "[2]; human blood with 0.8 mM methylene blue, n=3", "result": 0.28, "unit": "U/mL"}]}
{"substance": "oversulfated chondroitin sulfate [OSCS]", "values": [{"measurement": "quantitation of OSCS in heparin", "setting": "[3]; 1H-NMR", "result": 0.1, "unit": "wt %"}, {"measurement": "LOD of OSCS in heparin", "setting": "[3]; SAX-HPLC", "result": 0.03, "unit": "wt %"}, {"measurement": "quantitation of OSCS in heparin", "setting": "[3]; capillary electrophoresis (CE)", "result": 0.05, "unit": "wt %"}, {"measurement": "LOD of OSCS in heparin", "setting": "[3]; colorimetric chemosensors", "result": 0.003, "unit": "wt %"}, {"measurement": "LOD of OSCS in heparin", "setting": "[3]; heparin enzyme immunoassay", "result": 0.1, "unit": "wt %"}, {"measurement": "LOD of OSCS in heparin", "setting": "[3]; potentiometric assay", "result": 0.5, "unit": "wt %"}]}
{"substance": "low molecular weight heparin [LMWH]", "values": [{"measurement": "lowest concentration of LMWH that could be detected in blood", "setting": "[2]; methylene blue-doped human blood", "result": 72, "unit": "µg/mL"}]}
